Some of the results follow. Values are raw readings; no control value is given beside them.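 First-pass screen: polymyxin B was added at a level that permeabilizes the Salmonella outer membrane while sparing the inner membrane. DMSO wells, with and without polymyxin B, defined maximum growth. Because plates differed from one another, each plate's data were ranked separately and the compounds with the lowest OD600 were carried forward as hits.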

This note sets out measurements from the supplement of paper PMC12889115.

In this assay the test system is Salmonella enterica serovar Typhimurium SL1344. The assay can be described thus: bacterial growth OD600 after 18 h with compound and polymyxin B; higher = more bacterial growth (less inhibition). To be noted: 50 µM, Mueller-Hinton broth.

As for `COc1ccccc1CNC(=O)c1c(OC)cc(=O)n2c1CCN(CC1=CC[C@H]3C[C@@H]1C3(C)C)CC2`, under “polymyxin B 0.75 µg/mL”, the “bacterial growth OD600” value worked out at 0.006.

For the molecule `COCCn1cnc2cc(NC(=O)C3CCCCC3)cc(C(=O)NCCc3ccc(OC)cc3)c21`, under “polymyxin B 0.75 µg/mL”, the “bacterial growth OD600” value is 0.729.

Consider `Cc1ccccc1N1CCN(C(=O)CC2(c3ccccc3C)CC(=O)N(CCN(C)C)C2=O)CC1` (centres undefined), for which the “bacterial growth OD600” value (polymyxin B 0.75 µg/mL) came out at 0.775.

`O=C(NC(c1ccco1)C(F)(F)F)c1coc(Cn2cnc3ccccc32)n1` (centres undefined): the “bacterial growth OD600” value (polymyxin B 1 µg/mL) amounted to 0.924.

As for `Cc1nc[nH]c1CN1CC[C@@H](N2CCN(c3ccccn3)CC2)[C@H](O)C1`, where the note is “polymyxin B 0.75 µg/mL”, the “bacterial growth OD600” value came out at 0.803.

For `Cc1cc(OCc2cc(C(=O)N(C)Cc3ccccn3)no2)cc(C)c1Cl`, the “bacterial growth OD600” value (polymyxin B 1 µg/mL) was determined as 0.035.

For the molecule `Cn1cncc1C(=O)N1CCC(C2CCN(c3ncccn3)CC2)C1` (centres undefined), the “bacterial growth OD600” value (polymyxin B 0.75 µg/mL) was found to be 0.813.

In the case of `COCCNC(=O)c1ccc(OC)cc1OC1CCN(Cc2ccc(F)cc2Cl)CC1`, under “polymyxin B 1 µg/mL”, the “bacterial growth OD600” value was 0.044.

`C=CCO[C@H]1[C@H](NC(=O)CSC)c2ccccc2C12CCN(Cc1cc(OC)cc(OC)c1)CC2`: the “bacterial growth OD600” value (polymyxin B 0.75 µg/mL) is 0.961.

Take `COCCCNc1nc2nonc2nc1N(C)Cc1ccc(F)cc1`: the “bacterial growth OD600” value (polymyxin B 1 µg/mL) came out at 0.86.

For `O=C(CCC1CCN(C(=O)CC2=CCCCC2)CC1)NCC1CCCO1` (centres undefined), the “bacterial growth OD600” value (polymyxin B 1 µg/mL) came out at 0.83.

In the case of `COCc1ccc(CN2CCC(Oc3cc(Cl)ccc3C(=O)N3CCCCC3)CC2)o1`, the “bacterial growth OD600” value (polymyxin B 1 µg/mL) was 1.

Regarding `CCCn1c(C)c(CC(=O)NCCc2cscn2)c2c1CC(C)(C)CC2=O`, the “bacterial growth OD600” value (polymyxin B 0.75 µg/mL) worked out at 0.798.

As to `CCn1c(-c2cccnc2)nc2cc(NC(=O)COC)cc(C(=O)NC3CCCc4ccccc43)c21` (centres undefined), the “bacterial growth OD600” value (polymyxin B 0.75 µg/mL) is 0.837.

Take `C=CCCC(=O)NCc1cc(NS(=O)(=O)c2cccc(C(F)(F)F)c2)cc(C(=O)OC)c1`: the “bacterial growth OD600” value (polymyxin B 0.75 µg/mL) was found to be 0.734.

Regarding `Cn1ccnc1CNC(=O)C1(N2CCCCC2)Cc2ccccc2C1`, under “polymyxin B 0.75 µg/mL”, the “bacterial growth OD600” value amounted to 0.972.

For the molecule `COc1cc(CC2(CCC(=O)NCCCOc3cccnc3)CCC(=O)N2)ccc1F` (centres undefined), where the note is “polymyxin B 0.75 µg/mL”, the “bacterial growth OD600” value was found to be 0.846.

With `O=C(c1ccccc1)C1CCCN(C(=O)CC2(c3cccc(F)c3)CC(=O)N(C3CCCC3)C2=O)C1` (centres undefined), the “bacterial growth OD600” value (polymyxin B 0.75 µg/mL) stood at 0.007.

Consider `CCOc1ccccc1C1c2[nH]c3ccccc3c2CCN1C(=O)c1nc2ncccn2n1` (centres undefined), for which the “bacterial growth OD600” value (polymyxin B 1 µg/mL) came out at 0.06.

As for `COCCN(Cc1ccc(COC)o1)CC1CCCN(C2Cc3ccccc3C2)C1` (centres undefined), where the note is “polymyxin B 1 µg/mL”, the “bacterial growth OD600” value was determined as 0.834.

Consider `COCCNC(=O)c1ccc(OC)cc1OC1CCN(C2Cc3ccccc3C2)CC1`, for which, where the note is “polymyxin B 1 µg/mL”, the “bacterial growth OD600” value worked out at 0.893.

As for `CC(C)Cn1cc(C(=O)N(C)Cc2cc3ccccc3s2)c(=O)c(C(=O)N2CCCCCC2)c1`, the “bacterial growth OD600” value (polymyxin B 0.75 µg/mL) came out at 0.844.

For the molecule `COc1ccccc1C(=O)C1CCCN(C(=O)c2csc(-c3cccs3)n2)C1` (centres undefined), under “polymyxin B 1 µg/mL”, the “bacterial growth OD600” value was 0.009.

Regarding `CCc1ccc(CN2CCC(Oc3cc(C(=O)NC4CC4)ccc3OC)CC2)cc1`, under “polymyxin B 1 µg/mL”, the “bacterial growth OD600” value turned out to be 0.942.

Regarding `CCN(CC)C(=O)Cn1cc(C(=O)N2CCCC2c2cccc(OC)c2)nn1` (centres undefined), under “polymyxin B 1 µg/mL”, the “bacterial growth OD600” value was determined as 0.788.

Consider `CO[C@H]1[C@H](NC(=O)c2ccccn2)c2ccccc2C12CCN(C(=O)CC1=CCCCC1)CC2`, for which the “bacterial growth OD600” value (polymyxin B 0.75 µg/mL) was found to be 0.848.

In the case of `COc1ccccc1-n1cc(C(=O)N2CC[C@@H](N3CCN(C)CC3)[C@H](O)C2)cn1`, for the setting “polymyxin B 1 µg/mL”, the “bacterial growth OD600” value was found to be 1.25.

As for `Cc1nc2sccn2c1C(=O)N1CCC(n2nccc2NC(=O)C(C)(C)C)CC1`, the “bacterial growth OD600” value (polymyxin B 1 µg/mL) was 0.97.

For the molecule `CCOC(=O)CNC(=O)N1CCCC(Cc2ccc(F)cc2F)(C(=O)OCC)C1` (centres undefined), the “bacterial growth OD600” value (polymyxin B 1 µg/mL) worked out at 0.828.
